Measurements from PubChem BioAssay AID1487 (National Center for Advancing Translational Sciences (NCATS), 2009).
Among all 200,000 compounds or so, about 25 (0.01%) were called active. The inconclusive results got no clear call from the source; some entries with a clear call stand among them for comparison. Calls follow the shape of the dose curve; as a rule, active = well fitted inhibition curve with a large enough effect in the signal ratio, with a control signal flat (not every such curve was filed as active); inconclusive = small, poorly fitted or top-dose-only effect, or effect the other way, or a change in a side signal; inactive = flat fitted curve, though single readings scatter; the % refers to the signal ratio. Potencies beside an inconclusive call are fits to weak or partial responses and may not hold up.

assay: qHTS Assay for Modulators of Lamin A Splicing; conditions: HeLa LMNA splicing GFP/RFP minigene ratio, 48 h; ratio change, negative = inhibition: at 46.1 µM (top of the series) unless noted
Method in brief: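 S3 HeLa cells stably expressing lamin A-EGFP splicing minigene plus DsRed2, 600 cells/well, 48 h compound exposure at 37C. Laser-scanning cytometry; analysed as GFP (500-530 nm)/RFP (575-640 nm) total intensity ratio; 0.5% DMSO vehicle.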
% is scaled to controls: 0 for no effect and ±100 for the full control effect; potency is read from the fitted curve at half-maximal effect.

Structure (SMILES) | ratio change, negative = inhibition | Potency
COc1ccc(/C=N/NC(=O)c2cccc([N+](=O)[O-])c2)cc1OC | inconclusive: 15.3% [at 46 µM] | –
COc1cccc(N2C(=O)N(Cc3ccc(C#N)cc3)c3ccccc3S2(=O)=O)c1 | inactive: -2.34% [at 46 µM] | –
CC1(C(=O)O)Oc2cccnc2NC1=O (stereo unspecified) | inconclusive: 30.2% [at 46 µM] | –
CCC1CCCCN1C(=O)CSc1nnc(-c2ccc(OC)cc2)o1 (stereo unspecified) | inactive: -11% | –
CCOC(=O)c1cc(-c2ccccc2)sc1NC(=O)C(C)Sc1nnc(C)s1 (stereo unspecified) | inconclusive: -16.5% | –
CC1(C)C(=O)OC(c2cc(Br)ccc2O)C(C)(C)C1=O (stereo unspecified) | – | inconclusive: 12.6 µM [falling, partial curve]
N/C(=N\OC(=O)COc1ccc2ccccc2c1Br)c1ccncc1 | inactive: -19.3% [at 46 µM] | –
CCOc1ccc(CC(=O)NCCc2csc(-c3ccc(C(F)(F)F)cc3)n2)cc1 | inactive: -0.672% [at 46 µM] | –
Cc1ccc(-c2cccc(CN3CCN(C4CCN(C(C)C)CC4)C(CCO)C3)c2)o1 (stereo unspecified) | inconclusive: 0.494% [at 46 µM] | –
O=C(Cn1cnc2sc(-c3ccccc3)cc2c1=O)NCCc1ccccc1 | inactive: 2.72% | –
C=CC(C)(O)CC/C=C(\C)CCC=C(C)C (stereo unspecified) | inactive: -3.38% | –
O=C(COC(=O)c1sc2cc(Cl)ccc2c1Cl)Nc1ncc(Cl)cc1Cl | inconclusive: 11.9% [at 46 µM] | –
N#CCCCSc1ncccc1-c1nc2ccccc2[nH]1 | inactive: 11.6% | –
Cc1cc(C(=O)Nc2ccccc2)oc1C | inactive: -1.21% | –
O=C(/C=C/Nc1ccc(F)c(F)c1)c1cccs1 | inactive: -11% | –
COc1cc(NC(=S)Nc2cccc(Cl)c2Cl)c(OC)cc1Cl | inactive: 2.28% | –
CCCNC(=O)c1ccc(CN2CCOCC2)cc1 | inactive: 12.8% [at 46 µM] | –
O=c1c(Cl)c(Cl)cnn1Cc1ccccc1Cl | inconclusive: -74.7% | –
CC(OC(=O)c1nsc(Cl)c1Cl)C(=O)NCc1ccc2c(c1)OCO2 (stereo unspecified) | inactive: 10.9% [at 0.0737 µM] | –
Cc1c(Cl)cccc1NC(=S)NCC1COc2ccccc2O1 (stereo unspecified) | inconclusive: -6.61% [at 46 µM] | –
COCC(C)n1c(C)cc(C(=O)COC(=O)c2c(C)nn(-c3ccccc3)c2C)c1C (stereo unspecified) | – | inconclusive: 35.5 µM [fluorescent, single point]

Not a retest: an excerpt of the list.
Structure (SMILES) | ratio change, negative = inhibition | Potency
CCC1CCCCN1C(=O)CSc1nnc(-c2ccc(OC)cc2)o1 (stereo unspecified) | inactive: -11% | –
CCOC(=O)c1cc(-c2ccccc2)sc1NC(=O)C(C)Sc1nnc(C)s1 (stereo unspecified) | inconclusive: -16.5% | –

(listing goes on)

Structure (SMILES) | ratio change, negative = inhibition | Potency
CCCN1C(=O)C2(C(C(=O)c3ccc(C)o3)=C(O)C(=O)N2CCCN2CCOCC2)c2ccccc21 (stereo unspecified) | inactive: 5.27% | –
CCN(CC)c1ccc(C(=O)N2CCN(Cc3ccccc3)CC2)cc1 | inconclusive: -25.6% | –
CCc1nc(SCc2ccc(Cl)cc2)n[nH]1 | inactive: -8.8% [at 46 µM] | –
Cc1ccc(C(=O)NNC(=O)c2cccs2)cc1 | inconclusive: 28.8% [at 46 µM] | –
CC1(C)COC(/C=C/c2ccc([N+](=O)[O-])cc2)=N1 | inconclusive: -24.8% | –
COC(=O)CNC(c1ccccc1)c1cc(Br)ccc1NC(=O)OCc1ccccc1 (stereo unspecified) | inconclusive: 31.7% | –
COc1c(C)cc(C(=O)C2CCCN(Cc3ccc(Oc4ncccn4)cc3)C2)cc1C (stereo unspecified) | inconclusive: -8.67% [at 46 µM] | –
CC(Oc1ccc(Cl)cc1)c1ccnn1S(=O)(=O)c1ccc(Cl)cc1 (stereo unspecified) | – | inconclusive: 35.5 µM [falling, single point]
Cc1c(C(N)=O)cc([N+](=O)[O-])cc1[N+](=O)[O-] | inconclusive: -4.92% | –
S=c1[nH]nc(COc2ccccc2)n1/N=C/c1cccs1 | inactive: -12% | –
O=c1c(-c2ccc(F)c(F)c2)nc2cncnc2n1C1CC1 | inactive: -7.95% | –
OC(c1cccs1)(c1cccs1)C1C[N+]2(CF)CCC1CC2 (stereo unspecified) | inactive: -4.26% | –
Cc1cccc(CNc2nc(-c3cccc(NS(C)(=O)=O)c3)nc3ccccc23)c1 | – | inconclusive: 35.5 µM [cytotoxic, single point]
CCCCCn1c(SCc2ccncc2)nc2cc(C(=O)NCc3ccco3)ccc2c1=O | inconclusive: 19% [at 0.0737 µM] | –
c1ccc(-c2ccc(CN3CCN(c4ncccn4)CC3)cc2)cc1 | inconclusive: -33.2% | –
COc1ccccc1/C=C/C(=O)Nc1cccc(C(C)=O)c1 | – | inconclusive: 35.5 µM [inhibitor, single point]
COc1ncc2nc(-c3ccc(F)cc3)c(=O)n(CCc3ccccc3)c2n1 | inactive: 5.82% | –
CC(=O)Nc1ccc(Nc2c([N+](=O)[O-])cc(S(C)(=O)=O)cc2[N+](=O)[O-])cc1 | – | inconclusive: 22.4 µM [falling, partial curve]
COc1ccc(-c2cc3nc(-c4ccccc4)cc(N4CCC5(CC4)OCCO5)n3n2)cc1 | inconclusive: 5.43% | –
CC1CCN(C(=O)CN2CCSc3ccccc32)CC1 | inconclusive: -14.7% [at 46 µM] | –
